# From PubChem BioAssay AID2685 (National Center for Advancing Translational Sciences (NCATS), 2010)
# Some of the results follow. Shown are side measurements of this screen, not its main read-out; they come without a call. The list favours compounds with an active or inconclusive main result. The note in brackets gives the kind of curve behind each potency; many fits are weak.
# Experiment: qHTS Assay for Lipid Storage Modulators in Drosophila S3 Cells;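 on cell number change: cells counted by Cell Tracker Red CMTPX staining in the red channel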
# Conditions: BODIPY lipid droplet fluorescence, 18-24 h; for cell number change: measured here: cell count max response, cells fed with added oleic acid
# Method in brief: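 Drosophila S3 cells got compounds at several concentrations plus oleic acid (400 uM solution). Laser-scanning cytometry with 488 nm excitation read lipid droplets at 500-530 nm and cells at 575-640 nm. Percent activity was relative to 20 uM Triacsin C.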
# [1] = measured here: cell number channel AC50, cells fed with added oleic acid
# [2] = measured here: lipid fluorescence (Fed channel) AC50, cells fed with added oleic acid
SMILES,cell number change [%],AC50 [1],AC50 [2]
CCOC(=O)c1ccc2c(c1)nc(-c1ccc(F)cc1)c1nccn12,-56.4,"29.1 µM [falling, partial curve, poor fit]","4.11 µM [rising, partial curve]"
O=C1c2ccccc2C(=O)N1CCCCCCc1ccccc1,-4.4,–,"29.1 µM [falling, partial curve, poor fit]"
CCc1nc2ccccc2c(C(=O)OCC(=O)Nc2cccc(S(=O)(=O)N3CCOCC3)c2)c1C,-22.4,–,"0.0058 µM [falling, full curve, poor fit]"
CC(C)(C)C(=O)N1CCC(O)(CS(=O)(=O)c2ccc(Cl)c(Cl)c2)CC1,45,"29.1 µM [rising, single point]",–
Nc1cccc2nc3ccccc3cc12,-21.2,–,"16.4 µM [falling, single point]"
CN(C(=O)CSc1nnnn1-c1ccccc1)C1CCCCC1,-61,"4.61 µM [falling, full curve]",–
CCOc1ccc(CNC(=O)CCc2cn(C)c3ccccc23)cc1OC,-123,"32.6 µM [falling, partial curve, poor fit]","29.1 µM [falling, partial curve]"
CN(Cc1ccc(Cl)s1)C(=O)CNC(=O)CNC(=O)c1ccc(Cl)cc1Cl,25.8,–,"5.8 µM [rising, single point]"
CCOC(=O)c1c(C)[nH]c(C)c1C(=O)COC(=O)c1ccc(S(=O)(=O)C(F)F)cc1,-10.5,–,"0.164 µM [rising, full curve, poor fit]"
c1ccc(CNc2nc(CN3CCOCC3)nc3scc(-c4ccccc4)c23)cc1,-22.6,–,"8.2 µM [falling, partial curve]"
O=C(Cn1cccc1)N1CCN(c2ccc(F)cc2)CC1,-0.911,–,"4.11 µM [falling, full curve, poor fit]"
O=C(CN1C2=NCCN2c2ccccc21)C12CC3CC(CC(C3)C1)C2,49.5,"23.1 µM [rising, single point]",–
CCCCC(c1nnnn1CC1CCCO1)N1CCN(c2cc(Cl)ccc2C)CC1 (centres undefined),4.2,"1.84 µM [rising, partial curve, poor fit]","16.4 µM [rising, single point]"
Nc1c(Cl)cc(Cl)cc1C(=O)OCC(=O)N1CCCC1,–,"2.06 µM [rising, partial curve]",–
CCCCn1c(N)c(N(CC(C)C)C(=O)CCS(=O)(=O)c2ccc(C)cc2)c(=O)[nH]c1=O,-1.2,–,–
O=C(O)C1CCCN1c1nc(-c2ccc(Cl)c(Cl)c2)cc(C(F)(F)F)n1 (centres undefined),-0.259,–,"20.6 µM [rising, partial curve, poor fit]"
O=C(Nc1ccccc1C(=O)N1CCCC1)c1ccc(Cl)cc1Cl,–,–,"5.17 µM [falling, single point]"
Cc1c(C)n(C)c2ccc(C(=O)Nc3cccc4ccccc34)cc12,-15.2,–,"2.91 µM [rising, single point]"
COc1cc(/C=N/N2C(C)CCCC2C)cc(Br)c1O (centres undefined),-0.812,"0.00461 µM [falling, full curve, poor fit]",–
Cc1cc(C)nc(-n2nc(C)cc2NC(=O)CNCc2ccccc2)n1,52,"1.46 µM [rising, full curve]","0.461 µM [rising, full curve]"

SMILES,cell number change [%],AC50 [1],AC50 [2]
CCOc1ccc2nc(N3CCCC(C(=O)NCCCN4C(C)CCCC4C)C3)sc2c1 (centres undefined),16.2,–,"0.13 µM [rising, full curve, poor fit]"
CN(C)CCCn1c(=S)[nH]c2ccccc2c1=O,-21.7,–,"29.1 µM [falling, single point]"
CC(C)c1nc(NCc2ccccc2)c(C#N)c2c1CCCC2,41.4,"4.11 µM [rising, full curve]",–
CCN(c1ccc(NC(=O)CSc2nnc3nc(C)cc(C)n23)cc1)C(C)C,7.6,–,"0.00461 µM [falling, full curve, poor fit]"
CC(NC(=O)Cn1ncc(Cl)c(Cl)c1=O)C12CC3CC(CC(C3)C1)C2 (centres undefined),-35.6,"0.411 µM [falling, partial curve, poor fit]","4.11 µM [falling, partial curve]"
O=C(/C=C/c1ccc([N+](=O)[O-])cc1)N(c1ccccn1)C1CCCCC1,-55.5,"29.1 µM [falling, single point]",–
COc1ccccc1NC(=O)c1cc(-c2ccc(C)o2)nc2ccccc12,27.6,–,–
Cc1nc2[nH]c(=S)[nH]c2cc1Br,-15.9,–,"0.116 µM [falling, full curve, poor fit]"
C=CCNCCOc1ccc(C(C)(C)c2ccccc2)cc1,-33.3,"0.00517 µM [falling, full curve, poor fit]","8.2 µM [falling, partial curve, poor fit]"
COc1ccc(-n2nnnc2SCC(=O)Nc2ccccc2N2CCOCC2)cc1OC,-8.29,–,"0.461 µM [falling, full curve, poor fit]"
O=C(CCCN1C(=O)/C(=C\c2cccs2)SC1=S)NNC(=O)c1cccnc1,-57.8,"25.9 µM [falling, partial curve, poor fit]","14.6 µM [falling, partial curve]"
O=C(Cn1ccc(NC(=O)OCc2ccccc2)nc1=O)NCCc1ccccn1,10.9,–,"0.116 µM [falling, single point]"
CCCOc1cccc(C2C(C(=O)c3cc4ccccc4o3)=C(O)C(=O)N2c2cc(C)on2)c1 (centres undefined),35.7,"29.1 µM [rising, single point]","6.51 µM [rising, full curve]"
Cc1ccc(S(=O)(=O)NC(CC(C)C)C(=O)NCc2ccco2)cc1 (centres undefined),9.81,–,–
COc1cc(CNC2CCCc3ccccc32)cc(OC)c1OC (centres undefined),8.89,–,"2.59 µM [falling, single point]"
Cc1cc(OCC(=O)Nc2ccc(N3CCN(C)CC3)cc2)ccc1Cl,-10.4,–,"0.259 µM [rising, full curve]"
Cc1cc(C)c2c(CC(=O)Nc3ccc(Cl)cn3)coc2c1,-11.3,–,–
Cc1cc(C(=O)NC2CC(C)(C)Cc3c2cnn3-c2cccc(F)c2)n(C)n1 (centres undefined),-14.9,–,"0.058 µM [falling, full curve, poor fit]"
O=C(Cn1cnc2ccccc2c1=O)NCCC(=O)Nc1ccc2c(c1)OCO2,-88.7,"6.51 µM [falling, full curve]",–
COc1ccc(NC(=O)C/C(C)=N/NC(=O)c2cnccn2)c(OC)c1,5.88,–,"29.1 µM [rising, single point]"

SMILES,cell number change [%],AC50 [1],AC50 [2]
Cc1cc(=O)[nH]c(SCc2nc3ncccn3c2Br)n1,90.9,"20.6 µM [rising, single point]","29.1 µM [rising, single point]"
COc1cc(C(C)=O)ccc1OCC(O)Cn1nc(C)c(C(C)=O)c1C (centres undefined),-2.81,–,"0.0731 µM [falling, full curve, poor fit]"
COc1ccc(/C=C/c2ccc(=O)n(Cc3ccccc3)n2)cc1,57.3,"1.84 µM [rising, full curve]","5.17 µM [rising, partial curve]"
O=C(c1ccc2c(c1)OCO2)N1CCN(C(=O)c2ccco2)CC1,–,–,"6.51 µM [falling, partial curve]"
Cc1ccc(-n2ncc(C#N)c2/N=C/N2CCOCC2)cc1,–,–,"6.51 µM [rising, single point]"
Cc1cccc(Cn2cnc3c(nnn3Cc3ccc(F)cc3)c2=O)c1,17.6,–,"5.17 µM [rising, partial curve]"
Cc1ccc(C(=O)COC(=O)c2cc(=O)[nH]c3ccccc23)cc1,5.11,–,"6.51 µM [rising, single point]"
COc1ccc(OC)c(NC(=O)CCn2ccnc2)c1,38.7,"29.1 µM [rising, single point]",–
CC(=O)N1CCc2cc(N=NC3=C(O)CC(C)(C)CC3=O)ccc21,-9.39,–,–
O=C(COc1ccc(F)cc1)Nc1cc(S(=O)(=O)N2CCCCC2)ccc1N1CCCCC1,57.5,"2.06 µM [rising, full curve]","0.731 µM [rising, partial curve]"
COc1ccc(C2CC(c3ccccc3C)n3nc(N)nc3N2)cc1 (centres undefined),–,–,"2.91 µM [rising, single point]"
CCC(C(=O)NCc1ccco1)N(C(=O)CNS(=O)(=O)c1ccc(C)cc1)c1ccccc1F (centres undefined),–,–,"35.5 µM [falling, partial curve, poor fit]"
Cc1cccc(NC(=O)CSc2nnc(-c3ccco3)n2CC2CCCO2)n1 (centres undefined),-26.3,–,–
O=C(Cc1ccc(S(=O)(=O)N2CCOCC2)s1)NNC(=O)c1ccccc1Cl,-2.28,–,"0.116 µM [falling, full curve, poor fit]"
Cc1cc(C)c(S(=O)(=O)N2CCOCC2)cc1C,-3.53,"0.501 µM [falling, partial curve, poor fit]",–
CCOc1ccc(C2=Nn3c(nnc3-c3ccccc3)SC2)cc1Cl,35.1,"0.731 µM [rising, full curve, poor fit]","0.291 µM [rising, partial curve, poor fit]"
Cc1ccc(C(C(=O)NC2CCCCC2)N(CC2CCCO2)C(=O)CCCC(=O)Nc2ccccn2)cc1 (centres undefined),11.3,–,–
COc1ccc(C(=O)COC(=O)c2ccc3c(c2)NC(=O)CS3)c(OC)c1,20.2,–,–

# Individual results from above.
# In cell number change [%], CCOc1ccc(C2=Nn3c(nnc3-c3ccccc3)SC2)cc1Cl reads 35.1
# In AC50 [2], COc1ccc(C2CC(c3ccccc3C)n3nc(N)nc3N2)cc1 (centres undefined) reads 2.91 µM [rising, single point]
# In AC50 [1], Cc1cc(=O)[nH]c(SCc2nc3ncccn3c2Br)n1 reads 20.6 µM [rising, single point]
# In AC50 [2], Cc1ccc(-n2ncc(C#N)c2/N=C/N2CCOCC2)cc1 reads 6.51 µM [rising, single point]
